{"source": "paper PMC9065090", "binders": {"B1": {"name": "full-length CNPY4 (two differentially tagged constructs) (protein, UniProt Q8N129 22-248)", "chain": "GMLKEEDDDTERLPSKCEVCKLLSTELQAELSRTGRSREVLELGQVLDTGKRKRHVPYSVSETRLEEALENLCERILDYSVHAERKGSLRYAKGQSQTMATLKGLVQKGVKVDLGIPLELWDEPSVEVTYLKKQCETMLEEFEDIVGDWYFHHQEQPLQNFLCEGHVLPAAETACLQETWTGKEITDGEEKTEGEEEQEEEEEEEEEEGGDKMTKTGSHPKLDREDL"}}, "target": "full-length CNPY4 (two differentially tagged constructs) (UniProt Q8N129)", "assay": "co-IP; two differentially tagged constructs of full-length CNPY4 transfected into HEK293 cells; lysis in 0.5% Triton X-100, 0.5% NP-40, 150 mM NaCl, 50 mM Tris pH 8.0; antibody on protein A beads overnight at 4 °C", "note": "No constants are given. Whether binding was seen depends on the method and setting. In cells and extracts the contact can be indirect. Sequences can lack the tags named with a protein."}
{"binder": "B1", "values": [{"measurement": "binding", "value": "no binding"}]}
